Taken from: PubChem BioAssay AID1259254 (NCATS, 2017)

Purpose: 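Genome-wide screen for genes that prevent DNA re-replication in cancer cells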 (primary screen)
System: human HCT116 colorectal cancer cells
Knock-down reagent: single siRNA against human genes
Timing: 3 days
Measured: 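Imaged Hoechst DNA stain sorts each cell into a cycle phase by DNA amount; per plate, G2 fraction set to 0% for non-targeting and 100% for GMNN siRNA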
Reading the numbers: G2 robust z-score: higher = more G2 cells, more excess DNA replication
Rule for the call: 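Active siRNAs have a G2 robust z of 5 or more median absolute deviations over the median, which in these data means about 38% or higher of GMNN control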
In all, the deposit lists about 59,000 reagents; shown is a part drawn at random. Of all reagents, about 1,550 (2.6%) were called active. 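G2 share is only a proxy for re-replication; each gene was hit by three separate siRNAs, and active genes were retested.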 Reagents against one gene are numbered here. Not all columns of the deposit are shown. Not stated in the record: the amount of reagent.

no.	target	reagent no.	G2 robust z-score	call
1	PCCB (propionyl-CoA carboxylase subunit beta)	1	4	inactive
2	PCCB (propionyl-CoA carboxylase subunit beta)	2	-0.742	inactive
3	PCCB (propionyl-CoA carboxylase subunit beta)	3	-0.549	inactive
4	KCNA3 (potassium voltage-gated channel subfamily A member 3)	1	-0.892	inactive
5	KCNA3 (potassium voltage-gated channel subfamily A member 3)	2	-0.482	inactive
6	KCNA3 (potassium voltage-gated channel subfamily A member 3)	3	0.0797	inactive
7	TSKU (tsukushi, small leucine rich proteoglycan)	1	1.64	inactive
8	TSKU (tsukushi, small leucine rich proteoglycan)	2	2.79	inactive
9	TSKU (tsukushi, small leucine rich proteoglycan)	3	-1.39	inactive
10	WDR33 (WD repeat domain 33)	1	3.6	inactive
11	WDR33 (WD repeat domain 33)	2	-0.563	inactive
12	WDR33 (WD repeat domain 33)	3	0.668	inactive
13	S100B (S100 calcium binding protein B)	1	0.323	inactive
14	S100B (S100 calcium binding protein B)	2	0.477	inactive
15	S100B (S100 calcium binding protein B)	3	0.138	inactive
16	LARS2 (leucyl-tRNA synthetase 2, mitochondrial)	1	0.727	inactive
17	LARS2 (leucyl-tRNA synthetase 2, mitochondrial)	2	-0.901	inactive
18	LARS2 (leucyl-tRNA synthetase 2, mitochondrial)	3	3.87	inactive
19	KRTAP1-5 (keratin associated protein 1-5)	1	0.68	inactive
20	KRTAP1-5 (keratin associated protein 1-5)	2	-0.858	inactive
21	KRTAP1-5 (keratin associated protein 1-5)	3	0.141	inactive
22	LOC400576 (retired record)	1	-0.165	inactive
23	LOC400576 (retired record)	2	3.24	inactive
24	LOC400576 (retired record)	3	0.0819	inactive
25	C1QTNF1 (C1q and TNF related 1)	1	1.09	inactive
26	C1QTNF1 (C1q and TNF related 1)	2	-0.281	inactive
27	C1QTNF1 (C1q and TNF related 1)	3	-1.06	inactive
28	BST1 (bone marrow stromal cell antigen 1)	1	-0.157	inactive
29	BST1 (bone marrow stromal cell antigen 1)	2	3.74	inactive
30	BST1 (bone marrow stromal cell antigen 1)	3	-1.38	inactive
31	TGIF1 (TGFB induced factor homeobox 1)	1	1.6	inactive
32	TGIF1 (TGFB induced factor homeobox 1)	2	1.34	inactive
33	TGIF1 (TGFB induced factor homeobox 1)	3	-0.183	inactive
34	ZIK1 (zinc finger protein interacting with K protein 1)	1	-1.11	inactive
35	ZIK1 (zinc finger protein interacting with K protein 1)	2	-0.455	inactive
36	ZIK1 (zinc finger protein interacting with K protein 1)	3	4.04	inactive
37	STAG3L1 (STAG3 cohesin complex component like 1 (pseudogene))	1	-1.3	inactive
38	STAG3L1 (STAG3 cohesin complex component like 1 (pseudogene))	2	1.37	inactive
39	STAG3L1 (STAG3 cohesin complex component like 1 (pseudogene))	3	0.0838	inactive
40	CHRNB1 (cholinergic receptor nicotinic beta 1 subunit)	1	4.38	inactive
41	CHRNB1 (cholinergic receptor nicotinic beta 1 subunit)	2	-0.0837	inactive
42	CHRNB1 (cholinergic receptor nicotinic beta 1 subunit)	3	-1.21	inactive
43	ELFN1	1	2.03	inactive
44	ELFN1	2	0.174	inactive
45	ELFN1	3	-0.114	inactive
46	ZNF320 (zinc finger protein 320)	1	2.13	inactive
47	ZNF320 (zinc finger protein 320)	2	-0.553	inactive
48	ZNF320 (zinc finger protein 320)	3	0.265	inactive
49	C17orf100 (chromosome 17 open reading frame 100)	1	1.38	inactive
50	C17orf100 (chromosome 17 open reading frame 100)	2	-0.657	inactive
51	C17orf100 (chromosome 17 open reading frame 100)	3	1.55	inactive
52	NKAPL (NFKB activating protein like)	1	0.468	inactive
53	NKAPL (NFKB activating protein like)	2	2.69	inactive
54	NKAPL (NFKB activating protein like)	3	0.547	inactive
55	PIP4K2B (phosphatidylinositol-5-phosphate 4-kinase type 2 beta)	1	1.19	inactive
56	PIP4K2B (phosphatidylinositol-5-phosphate 4-kinase type 2 beta)	2	-1.05	inactive
57	PIP4K2B (phosphatidylinositol-5-phosphate 4-kinase type 2 beta)	3	-1.16	inactive
58	ZNF846 (zinc finger protein 846)	1	-0.518	inactive
59	ZNF846 (zinc finger protein 846)	2	-0.721	inactive
60	ZNF846 (zinc finger protein 846)	3	4.02	inactive
61	NKX6-1 (NK6 homeobox 1)	1	0.0134	inactive
62	NKX6-1 (NK6 homeobox 1)	2	-0.554	inactive
63	NKX6-1 (NK6 homeobox 1)	3	0.368	inactive
64	RNF7 (ring finger protein 7)	1	-0.388	inactive
65	RNF7 (ring finger protein 7)	2	0.135	inactive
66	RNF7 (ring finger protein 7)	3	2.77	inactive
67	ATXN3L (ataxin 3 like)	1	0.344	inactive
68	ATXN3L (ataxin 3 like)	2	-0.124	inactive
69	ATXN3L (ataxin 3 like)	3	-0.234	inactive
